From ChEMBL document CHEMBL5154896, “Discovery of a Novel Class of d-Amino Acid Oxidase Inhibitors Using the Schrödinger Computational Platform” (J Med Chem, 2022)

Tests used:
[1] = Inhibition of sodium channel (unknown origin); design: species or system Homo sapiens
[2] = Inhibition of sigma receptor in guinea pig brain membrane incubated for 30 mins by scintillation counting based radiometry assay; type: cell membranes, Cavia porcellus, Cell membrane
HepG2 [3] = experiment: Mitotoxicity in human HepG2 cells measured after 24 hrs by Glu/Gal assay; type: toxicity, cell-based; details: hepg2, 24 h
HepG2 [4] = experiment: Cytotoxicity against human HepG2 cells assessed as reduction in cellular ATP production measured after 72 hrs; type: functional

IC50 [1]: > 10 µM | IC50 [2]: > 10 µM
SMILES: O=c1[nH]cc(CSc2ccc(C(F)F)cc2)[nH]c1=O
Activity (HepG2 [3]): > 100 µM | Activity (HepG2 [4]): >100 µM
